Reference: patent US11555006B2, “Elucidation of novel 13-series resolvins that increase with atorvastatin and clear infections” (The Brigham and Women's Hospital, Inc., priority 2015, dated 2023)
At least one compound was matched to its structure with a doubt left.

System: human neutrophil-endothelial cell co-incubations
Assay: Lipid mediator levels in human endothelial cell incubations and neutrophil-endothelial cell co-incubations
Assay type: cell-based
Conditions: for increase in RvT amounts on co-incubation with precursor: neutrophil-endothelial cells, 1 μM precursor

SMILES: CC/C=C\C/C=C\C/C=C\C/C=C\C/C=C\C/C=C\CCC(=O)O [DHA, docosahexaenoic acid]
- increase in RvT amounts on co-incubation with precursor: neither DHA nor EPA

SMILES: CC/C=C\C/C=C\C/C=C\C/C=C\C/C=C\CCCC(=O)O [EPA, eicosapentaenoic acid]
- increase in RvT amounts on co-incubation with precursor: neither DHA nor EPA

SMILES: Cc1ccc(-c2cc(C(F)(F)F)nn2-c2ccc(S(N)(=O)=O)cc2)cc1 [celecoxib]
- RvT in neutrophil-endothelial co-incubations with atorvastatin (celecoxib 25 μM): significantly reduced
